Values quoted from earlier work as cited in patent US20040014721A1, “Method for using tethered bis(polyhydroxyphenyls) and O-alkyl derivatives thereof in treating inflammatory conditions of the central nervous system” (Oklahoma Medical Research Foundation, priority 2002, published 2004).
For at least one compound, name, drawing or mass did not settle the structure.

System: G93A-SOD1 mice
Conditions: administration begun at seven weeks of age; Zhu et al. 2002; cited from earlier work

CN(C)c1ccc(O)c2c1C[C@H]1C[C@H]3[C@H](N(C)C)C(O)=C(C(N)=O)C(=O)[C@@]3(O)C(O)=C1C2=O [Minocycline]
increase of lifespan: 11 days
